The source of these data is patent publication US9624164B2, “Phenyl carbamate compounds for use in preventing or treating epilepsy” (Bio-Pharm Solutions Co., Ltd., priority 2011, dated 2017).

For series [1], the system named is male ICR mice. Put plainly: MES test (maximal electroshock, corneal electrodes), oral administration, mice. The class given is in vivo. (Protection in the maximal electroshock model is a classic sign of anticonvulsant action.)
Series [2] deals with male ICR mice. Put plainly: scPTZ test (subcutaneous pentylenetetrazol-induced clonic seizure), intraperitoneal administration, mice. The class given is in vivo. How it is done: After Peak time (0.5, 1, 2 and 4 hr) from the administration, PTZ (Pentylenetetrazol) was administered subcutaneously in the concentration capable of inducing 97% intermittent convulsions (mice: 100˜110 mg/kg·bw, 100 ul/g, or rats: 90˜110 mg/kg·bw, 20 ul/g). If clonic seizure was not observed for at least 3 seconds in the PTZ administered animal, it can be considered that the test compound has anti-epilepsy activity.

Take `C[C@@H](OC(N)=O)[C@H](O)c1c(Cl)cccc1Cl` [Compound 46, 1-(2,6-dichlorophenyl)-(R)-1-hydroxypropyl-(R)-2-carbamate]: in series [1], the “MES test(po) Peak Time” value is given as 1 h.

For the compound `CC(C)[C@H](OC(N)=O)[C@@H](O)c1c(Cl)cccc1Cl` [Compound 42, 1-(2,6-dichlorophenyl)-(S)-1-hydroxy-3-methyl-butyl-(S)-2-carbamate], the “MES test(po) Peak Time” value in series [1] came out at 0.5 h.

As for `CC(C)[C@H](OC(N)=O)[C@@H](O)c1ccccc1Cl` [Compound 9, 1-(2-chlorophenyl)-(S)-1-hydroxy-3-methyl-butyl-(S)-2-carbamate], the “MES test(po) Peak Time” value in series [1] is listed as 0.5 h. Regarding `C[C@H](OC(N)=O)[C@H](O)c1ccccc1Cl` [Compound 5, 1-(2-chlorophenyl)-(R)-1-hydroxypropyl-(S)-2-carbamate], in series [2], the “ScPTZ test(ip) Peak Time” value is 0.5 h. Moreover, the “MES test(po) Peak Time” value in series [1] turned out to be 0.5 h.

Regarding `CC[C@H](OC(N)=O)[C@@H](O)c1ccc(Cl)cc1Cl` [Compound 39, 1-(2,4-dichlorophenyl)-(S)-1-hydroxybutyl-(S)-2-carbamate], in series [2], the “ScPTZ test(ip) Peak Time” value was 0.5 h. In addition, in series [1], the “MES test(po) Peak Time” value is 1 h. `C[C@H](OC(N)=O)[C@@H](O)c1c(Cl)cccc1Cl` [Compound 37, 1-(2,6-dichlorophenyl)-(S)-1-hydroxypropyl-(S)-2-carbamate]: the “ScPTZ test(ip) Peak Time” value in series [2] was found to be 0.25 h. In addition, in series [1], the “MES test(po) Peak Time” value is listed as 0.25 h.

With `C[C@@H](OC(N)=O)[C@H](O)c1ccccc1Cl` [Compound 2, 1-(2-chlorophenyl)-(R)-1-hydroxypropyl-(R)-2-carbamate], in series [2], the “ScPTZ test(ip) Peak Time” value came to 0.5 h. For the same compound, the “MES test(po) Peak Time” value in series [1] amounted to 0.25 h. Consider `C[C@H](OC(N)=O)[C@@H](O)c1ccccc1Cl` [Compound 1, 1-(2-chlorophenyl)-(S)-1-hydroxypropyl-(S)-2-carbamate], for which the “ScPTZ test(ip) Peak Time” value in series [2] turned out to be 2 h. Moreover, in series [1], the “MES test(po) Peak Time” value is on record as 2 h. Consider `C[C@H](OC(N)=O)[C@@H](O)c1cccc(Cl)c1Cl` [Compound 38, 1-(2,3-dichlorophenyl)-(S)-1-hydroxypropyl-(S)-2-carbamate], for which, in series [1], the “MES test(po) Peak Time” value is reported as 2 h. Take `CC(OC(N)=O)C(O)c1ccccc1Cl` (racemic) [Compound 3, 1-(2-chlorophenyl)-1-hydroxypropyl-2-carbamate]: the “ScPTZ test(ip) Peak Time” value in series [2] was found to be 0.5 h. Further, in series [1], the “MES test(po) Peak Time” value is on record as 2 h. For `C[C@@H](OC(N)=O)[C@@H](O)c1ccccc1Cl` [Compound 4, 1-(2-chlorophenyl)-(S)-1-hydroxypropyl-(R)-2-carbamate], the “MES test(po) Peak Time” value in series [1] amounted to 0.5 h. Take `CC[C@H](OC(N)=O)[C@@H](O)c1ccccc1Cl` [Compound 6, 1-(2-chlorophenyl)-(S)-1-hydroxybutyl-(S)-2-carbamate]: the “ScPTZ test(ip) Peak Time” value in series [2] amounted to 0.5 h. For the same compound, the “MES test(po) Peak Time” value in series [1] is listed as 1 h.
